One assay has as its target T1, MBP-IPD3 (M. truncatula) (UniProt A7TUE1).
T1 sequence: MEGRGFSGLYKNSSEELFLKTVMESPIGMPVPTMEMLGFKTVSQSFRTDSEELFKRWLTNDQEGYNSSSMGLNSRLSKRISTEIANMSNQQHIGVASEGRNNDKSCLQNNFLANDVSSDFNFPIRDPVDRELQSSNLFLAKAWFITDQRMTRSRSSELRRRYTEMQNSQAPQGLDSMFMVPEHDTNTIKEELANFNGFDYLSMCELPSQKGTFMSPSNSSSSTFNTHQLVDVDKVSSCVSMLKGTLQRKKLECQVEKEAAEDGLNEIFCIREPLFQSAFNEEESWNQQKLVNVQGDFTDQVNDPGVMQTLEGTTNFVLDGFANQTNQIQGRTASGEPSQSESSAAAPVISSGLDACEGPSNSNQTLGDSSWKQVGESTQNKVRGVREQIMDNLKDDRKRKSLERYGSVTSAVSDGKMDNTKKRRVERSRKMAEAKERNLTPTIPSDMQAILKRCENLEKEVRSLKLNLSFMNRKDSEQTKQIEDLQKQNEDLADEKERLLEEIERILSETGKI
As to the kind of experiment: pull-down; MBP fusion on amylose resin captures purified HIS-tagged MtDELLA; western blot with anti-MBP and anti-HIS; both purified. (In general: A western blot detects proteins with antibodies after separation by electrophoresis.)

In assay [1] the target is T2, IPD3-cYFP (M. truncatula) (UniProt A7TUE1).
T2 sequence: T1 sequence
As to the kind of experiment: split reporter; BiFC with nYFP and cYFP fusions in Arabidopsis mesophyll protoplasts; confocal microscopy.

These are yes or no findings as the source states them, for the method shown. A result given as binding can be weak or reduced; the word gives no strength. Where a sequence is shown, tags or fusion partners need not be part of it. For some assays here: In cells and extracts the contact can be indirect.

HIS-MtDELLA3 (M. truncatula): in the assay with MBP-IPD3 (M. truncatula), the binding result is reported as “binds”.
As to MtDELLA3-nYFP (M. truncatula), the binding result in assay [1] is on record as “binds”.

These data come from PMC4990646.
